From PMC10366140

Test system: apRAD51C (apCX3 core) + apXRCC3 (apCX3 core)
Assay: EMSA
Settings: no added nucleotide or Mg listed, 4 C; EMSA: 20 mM Tris pH 8.0, 150 mM KCl, 4 C 15 min, 1% agarose 0.5x TBE; recombinant protein; label: internal FAM on the 11th dT; single-stranded DNA

TTTTTTTTTTTTTTTTTTTTT [poly-21dT]
binding result: binds

Construct, isoform or probe ends are uncertain for at least one entry.
